Article PMC7236181
These are yes or no findings as the source states them, for the method shown. Binding seen in cells or lysates may run through a third protein. Some results given as binding are weak or reduced against the parent protein; the word gives no strength.

Protein sequences, listed by entry. Tags and fused reporters are not part of them.
UniProt Q13315: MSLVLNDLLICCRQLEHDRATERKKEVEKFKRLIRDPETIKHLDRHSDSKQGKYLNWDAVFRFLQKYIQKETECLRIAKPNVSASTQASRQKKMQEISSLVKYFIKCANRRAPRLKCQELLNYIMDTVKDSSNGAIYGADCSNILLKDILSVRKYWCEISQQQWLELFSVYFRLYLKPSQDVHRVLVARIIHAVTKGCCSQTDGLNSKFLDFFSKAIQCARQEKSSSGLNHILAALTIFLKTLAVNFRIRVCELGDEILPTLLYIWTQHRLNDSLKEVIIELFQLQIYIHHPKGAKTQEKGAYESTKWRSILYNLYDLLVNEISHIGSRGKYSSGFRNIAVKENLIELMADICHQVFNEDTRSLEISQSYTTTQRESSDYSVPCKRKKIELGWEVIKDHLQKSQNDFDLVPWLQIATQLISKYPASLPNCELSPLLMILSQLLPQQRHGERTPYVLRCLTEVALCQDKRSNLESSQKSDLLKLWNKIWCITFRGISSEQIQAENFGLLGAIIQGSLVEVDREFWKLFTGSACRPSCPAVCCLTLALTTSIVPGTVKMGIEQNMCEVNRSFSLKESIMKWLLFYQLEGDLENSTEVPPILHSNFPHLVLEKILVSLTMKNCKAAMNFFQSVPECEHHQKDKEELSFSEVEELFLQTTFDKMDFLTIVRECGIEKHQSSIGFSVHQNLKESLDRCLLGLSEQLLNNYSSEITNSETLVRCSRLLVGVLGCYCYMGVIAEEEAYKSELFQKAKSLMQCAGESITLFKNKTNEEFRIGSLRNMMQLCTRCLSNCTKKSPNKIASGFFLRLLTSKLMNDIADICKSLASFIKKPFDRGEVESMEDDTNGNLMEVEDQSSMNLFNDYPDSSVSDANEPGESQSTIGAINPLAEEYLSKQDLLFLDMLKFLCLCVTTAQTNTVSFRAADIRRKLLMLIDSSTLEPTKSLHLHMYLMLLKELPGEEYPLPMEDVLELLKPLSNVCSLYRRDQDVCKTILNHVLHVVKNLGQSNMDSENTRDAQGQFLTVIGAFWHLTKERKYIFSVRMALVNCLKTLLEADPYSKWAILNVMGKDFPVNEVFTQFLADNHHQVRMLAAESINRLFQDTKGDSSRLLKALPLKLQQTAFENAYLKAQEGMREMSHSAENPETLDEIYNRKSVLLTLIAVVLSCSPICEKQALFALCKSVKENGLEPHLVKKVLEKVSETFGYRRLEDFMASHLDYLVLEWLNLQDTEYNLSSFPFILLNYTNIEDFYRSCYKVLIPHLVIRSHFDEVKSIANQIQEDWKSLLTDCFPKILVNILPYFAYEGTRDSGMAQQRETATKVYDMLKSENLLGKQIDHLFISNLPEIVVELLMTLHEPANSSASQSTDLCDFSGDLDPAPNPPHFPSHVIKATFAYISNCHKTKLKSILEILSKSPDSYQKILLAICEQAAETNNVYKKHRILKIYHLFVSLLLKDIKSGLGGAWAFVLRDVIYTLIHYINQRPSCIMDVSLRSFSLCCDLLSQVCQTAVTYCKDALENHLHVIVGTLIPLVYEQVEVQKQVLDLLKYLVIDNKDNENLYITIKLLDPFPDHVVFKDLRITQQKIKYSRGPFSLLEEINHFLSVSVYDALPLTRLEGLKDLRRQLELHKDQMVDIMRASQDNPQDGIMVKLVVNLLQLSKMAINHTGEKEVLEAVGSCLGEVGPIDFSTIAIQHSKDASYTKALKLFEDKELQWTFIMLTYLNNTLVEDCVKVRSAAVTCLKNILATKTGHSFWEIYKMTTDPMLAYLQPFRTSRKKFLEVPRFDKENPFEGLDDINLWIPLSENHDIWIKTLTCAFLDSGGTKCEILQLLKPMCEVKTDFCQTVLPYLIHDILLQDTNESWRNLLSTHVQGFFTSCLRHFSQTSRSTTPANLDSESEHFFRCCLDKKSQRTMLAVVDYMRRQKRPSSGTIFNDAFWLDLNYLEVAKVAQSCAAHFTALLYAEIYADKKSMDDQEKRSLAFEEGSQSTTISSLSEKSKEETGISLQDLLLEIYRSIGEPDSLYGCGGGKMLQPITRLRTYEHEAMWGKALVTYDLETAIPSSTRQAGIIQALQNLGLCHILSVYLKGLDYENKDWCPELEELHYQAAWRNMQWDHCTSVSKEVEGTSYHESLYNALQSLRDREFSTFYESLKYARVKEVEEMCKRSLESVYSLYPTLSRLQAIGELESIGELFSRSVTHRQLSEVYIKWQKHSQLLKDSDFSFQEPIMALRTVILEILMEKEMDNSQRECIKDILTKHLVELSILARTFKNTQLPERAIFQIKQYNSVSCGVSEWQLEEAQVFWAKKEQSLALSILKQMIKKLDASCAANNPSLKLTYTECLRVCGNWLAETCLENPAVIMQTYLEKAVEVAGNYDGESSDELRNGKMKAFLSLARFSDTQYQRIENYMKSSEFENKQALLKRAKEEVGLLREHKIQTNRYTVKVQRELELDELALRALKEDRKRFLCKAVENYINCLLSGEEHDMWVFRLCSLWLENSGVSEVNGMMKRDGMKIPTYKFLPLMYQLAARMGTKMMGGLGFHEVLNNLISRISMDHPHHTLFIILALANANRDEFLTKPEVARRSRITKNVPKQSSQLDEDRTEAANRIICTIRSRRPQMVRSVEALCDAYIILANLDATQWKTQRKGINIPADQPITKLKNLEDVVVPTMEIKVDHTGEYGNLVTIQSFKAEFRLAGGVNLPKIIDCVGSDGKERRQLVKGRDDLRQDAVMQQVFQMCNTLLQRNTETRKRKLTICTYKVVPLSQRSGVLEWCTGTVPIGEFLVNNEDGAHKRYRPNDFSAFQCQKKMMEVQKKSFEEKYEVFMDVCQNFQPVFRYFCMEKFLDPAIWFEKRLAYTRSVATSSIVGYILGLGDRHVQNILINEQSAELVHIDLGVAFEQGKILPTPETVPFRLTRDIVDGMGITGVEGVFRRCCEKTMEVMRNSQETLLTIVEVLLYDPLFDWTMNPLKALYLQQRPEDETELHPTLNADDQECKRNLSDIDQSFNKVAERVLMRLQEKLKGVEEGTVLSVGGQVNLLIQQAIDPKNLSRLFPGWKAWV
UniProt O15534: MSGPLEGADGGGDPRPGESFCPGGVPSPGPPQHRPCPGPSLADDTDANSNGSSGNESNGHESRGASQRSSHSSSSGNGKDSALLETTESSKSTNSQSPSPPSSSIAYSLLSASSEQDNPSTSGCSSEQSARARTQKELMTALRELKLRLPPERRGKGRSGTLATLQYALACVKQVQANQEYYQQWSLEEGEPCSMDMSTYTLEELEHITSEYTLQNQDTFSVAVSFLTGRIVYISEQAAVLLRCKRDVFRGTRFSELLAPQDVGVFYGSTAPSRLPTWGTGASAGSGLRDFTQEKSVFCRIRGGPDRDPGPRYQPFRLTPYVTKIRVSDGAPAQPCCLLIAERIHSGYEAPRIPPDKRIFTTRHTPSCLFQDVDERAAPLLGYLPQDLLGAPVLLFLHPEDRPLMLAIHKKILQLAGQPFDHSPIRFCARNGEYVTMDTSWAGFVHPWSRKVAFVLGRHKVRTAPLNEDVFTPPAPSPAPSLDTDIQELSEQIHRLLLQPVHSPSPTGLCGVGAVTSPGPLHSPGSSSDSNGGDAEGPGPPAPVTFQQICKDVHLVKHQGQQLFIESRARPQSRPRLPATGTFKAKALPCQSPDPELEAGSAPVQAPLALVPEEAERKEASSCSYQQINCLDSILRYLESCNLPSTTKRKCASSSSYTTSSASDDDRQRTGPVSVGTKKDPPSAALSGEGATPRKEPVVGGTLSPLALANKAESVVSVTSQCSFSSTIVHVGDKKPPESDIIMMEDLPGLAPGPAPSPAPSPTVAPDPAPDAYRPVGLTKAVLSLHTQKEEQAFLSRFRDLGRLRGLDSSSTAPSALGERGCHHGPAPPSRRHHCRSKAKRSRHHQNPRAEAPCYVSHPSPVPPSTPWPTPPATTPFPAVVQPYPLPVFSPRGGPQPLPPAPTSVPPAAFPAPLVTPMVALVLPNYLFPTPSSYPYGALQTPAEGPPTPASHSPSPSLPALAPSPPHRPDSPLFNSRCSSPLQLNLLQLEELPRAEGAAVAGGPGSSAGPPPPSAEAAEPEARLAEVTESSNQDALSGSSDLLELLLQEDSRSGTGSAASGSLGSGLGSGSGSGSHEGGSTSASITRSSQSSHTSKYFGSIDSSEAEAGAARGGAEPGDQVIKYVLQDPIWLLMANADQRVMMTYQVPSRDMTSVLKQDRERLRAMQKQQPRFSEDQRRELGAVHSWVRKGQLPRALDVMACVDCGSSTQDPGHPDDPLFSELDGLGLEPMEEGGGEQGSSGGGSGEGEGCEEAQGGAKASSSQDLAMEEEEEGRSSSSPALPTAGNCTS

Target: ATM (human (endogenous in 293 T)) (UniProt Q13315)
Test: co-IP; lysate of 293 T cells transfected with PER1 or an empty vector; IP with an ATM antibody (sc-377,293) or control IgG and protein A-sepharose beads, overnight at 4 °C; western blotting

## PER1 (from UniProt O15534 1-1290)
  binding: binds
